Positions count from the first letter of the chain named. Results are given in words; binding and its absence hold for the method and conditions named. In cells and extracts the contact can be indirect. Some results given as binding are weak or reduced against the parent protein; the word gives no strength. Where a sequence is shown, tags or fusion partners need not be part of it.
Tests used:
Assay in all cases: co-IP; Flag immunoprecipitation (anti-Flag antibody or normal mouse serum, Protein G Sepharose) from metaphase-arrested Xenopus CSF egg extracts expressing 2xFlag-huWdr8 constructs from added mRNA; 23 °C; washes TBS-T and TBS; Western blot
[1] = biological target: T1, 2xFlag-196/197AA (human) (UniProt Q9P2S5)
T1 sequence: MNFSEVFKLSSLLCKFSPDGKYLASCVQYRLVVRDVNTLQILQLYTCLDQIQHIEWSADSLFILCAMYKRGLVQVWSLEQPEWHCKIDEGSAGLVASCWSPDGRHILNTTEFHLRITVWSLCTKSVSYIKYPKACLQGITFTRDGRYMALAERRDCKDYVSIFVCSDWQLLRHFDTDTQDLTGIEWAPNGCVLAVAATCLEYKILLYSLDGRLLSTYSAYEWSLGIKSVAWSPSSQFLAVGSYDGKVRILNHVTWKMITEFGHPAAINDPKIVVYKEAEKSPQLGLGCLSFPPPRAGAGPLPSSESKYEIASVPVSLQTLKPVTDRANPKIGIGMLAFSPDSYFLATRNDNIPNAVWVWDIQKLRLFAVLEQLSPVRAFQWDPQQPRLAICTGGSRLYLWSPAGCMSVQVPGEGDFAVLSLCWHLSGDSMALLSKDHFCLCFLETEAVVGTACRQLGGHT

Protein sequences, listed by entry. Tags and fused reporters are not part of them.
UniProt P23330: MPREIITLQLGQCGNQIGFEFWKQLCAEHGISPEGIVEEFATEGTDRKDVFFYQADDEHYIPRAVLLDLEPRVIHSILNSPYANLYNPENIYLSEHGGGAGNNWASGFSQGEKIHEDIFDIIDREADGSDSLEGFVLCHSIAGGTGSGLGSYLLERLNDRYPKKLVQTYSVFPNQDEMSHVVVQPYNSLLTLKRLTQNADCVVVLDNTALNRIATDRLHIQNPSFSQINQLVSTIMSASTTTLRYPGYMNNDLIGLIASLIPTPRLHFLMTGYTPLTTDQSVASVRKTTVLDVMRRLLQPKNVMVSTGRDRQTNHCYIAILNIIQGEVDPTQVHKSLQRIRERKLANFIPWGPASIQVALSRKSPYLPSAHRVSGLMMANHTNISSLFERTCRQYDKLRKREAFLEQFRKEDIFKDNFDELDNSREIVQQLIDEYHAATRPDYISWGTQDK

[2] = biological target: T2, 2xFlag-359/360AA (human) (UniProt Q9P2S5)
T2 sequence: T1 sequence with A196W, A197D, W359A, D360A

[3] = biological target: T3, 2xFlag-huWdr8 wild-type (human) (UniProt Q9P2S5)
T3 sequence: T1 sequence with A196W, A197D

binding [1]: binds
binding [2]: binds
binding [3]: binds
Substance: γ-tubulin (from UniProt P23330 1-451)
